Experimental data: PubChem BioAssay AID1259405 (NCATS, 2018)
In all, the deposit lists about 50,000 reagents; this is a part drawn at random. About 4,000 of all reagents (8%) count as active. 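Mouse siRNA library applied to hamster cells; one well for each siRNA.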 Reagents against one gene are numbered here.

Screen: 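Mouse-designed siRNAs used to find CHO productivity engineering targets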 (primary screen)
Cells: Chinese hamster CHO-K1 ovary cells with stable secreted eGFP expression
Knock-down reagent: single siRNA against mouse genes, 0.8 pmol siRNA per well (2 µl of 400 nM stock)
Time to read-out: 3 days
Measurement: 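Per-well intracellular GFP measured by laser scanning cytometry, plus viability from ATP luminescence, each relative to plate median of non-targeting control wells, in %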
Scale: GFP, % of control: higher = more GFP per well, higher productivity; viability (ATP), % of control: higher = more viable cells (more ATP)
Hit rule: 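a knock-down is called active if GFP reaches 120% or more of non-targeting control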

Aurkb: GFP, % of control = 77.3; viability (ATP), % of control = 86.6; activity call = inactive
Sema3e #1: GFP, % of control = 105; viability (ATP), % of control = 65.6; activity call = inactive
Sema3e #2: GFP, % of control = 17.6; viability (ATP), % of control = 16; activity call = inactive
Sema3e #3: GFP, % of control = 21.7; viability (ATP), % of control = 26; activity call = inactive
Sall1 #1: GFP, % of control = 57.6; viability (ATP), % of control = 67.5; activity call = inactive
Sall1 #2: GFP, % of control = 86.8; viability (ATP), % of control = 94.7; activity call = inactive
Sall1 #3: GFP, % of control = 68.3; viability (ATP), % of control = 99.9; activity call = inactive
Dynlrb1 #1: GFP, % of control = 85.9; viability (ATP), % of control = 94.8; activity call = inactive
Dynlrb1 #2: GFP, % of control = 46.3; viability (ATP), % of control = 58.5; activity call = inactive
Rel #1: GFP, % of control = 103; viability (ATP), % of control = 97.8; activity call = inactive
Rel #2: GFP, % of control = 56.7; viability (ATP), % of control = 74.2; activity call = inactive
Rel #3: GFP, % of control = 65.9; viability (ATP), % of control = 96.5; activity call = inactive
Nudt16l2 #1: GFP, % of control = 80.3; viability (ATP), % of control = 56.1; activity call = inactive
Nudt16l2 #2: GFP, % of control = 71.8; viability (ATP), % of control = 86.8; activity call = inactive
Nudt16l2 #3: GFP, % of control = 81.3; viability (ATP), % of control = 71.5; activity call = inactive
Defb50 #1: GFP, % of control = 37.5; viability (ATP), % of control = 44.6; activity call = inactive
Defb50 #2: GFP, % of control = 87.3; viability (ATP), % of control = 62; activity call = inactive
Defb50 #3: GFP, % of control = 61.3; viability (ATP), % of control = 32; activity call = inactive

In a second layout: entries from further up
{"target gene": "Sema3e", "reagent no.": 2, "GFP, % of control": 17.6, "viability (ATP), % of control": 16, "activity call": "inactive"}
{"target gene": "Sema3e", "reagent no.": 3, "GFP, % of control": 21.7, "viability (ATP), % of control": 26, "activity call": "inactive"}
